For the assay, the system named is 22Rv1 prostate cancer cells. The assay can be described thus: MTS cytotoxicity assay, 22Rv1. The settings on record: Homo sapiens, 22Rv1, 72 h, read-out: 22Rv1 IC50.

Values after ≈ are worked out from the molar mass of the structure shown.

Take `CNC(=O)c1ccc(N2C(=S)N(c3ccc(C#N)c(C(F)(F)F)c3)C(=O)C2(C)C)cc1F` [Enzalutamide, enzalutamide, reference compound]: the IC50 stood at 29 ± 2.4 µg/mL (≈ 62.4 µM).
